According to article PMC12504691:
Results are given in words; binding and its absence hold for the method and conditions named. Binding seen in cells or lysates may run through a third protein. Some results given as binding are weak or reduced against the parent protein; the word gives no strength.

Target: Estrogen receptor alpha (ESR1) (UniProt P03372)
Assay: pull-down; called 'pull-down assay' in the legend; ESR1 overexpression model (MCF7), detected by blot; also after E2 treatment (Fig. 6G); bait not stated

With “SQSTM1 (p62) (from UniProt Q13501 1-440)” the binding was “binds”.
